Test results from PMC9373814 (Theranostics, 2022).

Assay: general procedure: Fmoc solid-phase peptide synthesis; HATU/DIPEA
Conditions: whole synthesis

**Q.** Which isolated yield does the source give for “D-Phe-cyclo[Cys-Tyr-D-Trp-Lys(IvDde)-Thr-Cys]-Thr-OH” here?
**A.** Its isolated yield is 40%.
